This is one part of the list.
What was measured:
Assay in all cases: log2 fold change, soluble protein after heating vs DMSO (PISA); higher = thermal stabilisation; K562 lysate, 10 uM; active = over 0.2 and 3.5 SD of the protein, either way, in both replicates (recomputed)
[1] = compound: CS(=O)(=O)CCNCc1ccc(-c2ccc3ncnc(Nc4ccc(OCc5cccc(F)c5)c(Cl)c4)c3c2)o1 [lapatinib]
Procedure, shortened: (§1)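 Pellets of K562 cells were dounce-homogenised in PBS pH 7.4 with 1 mM MgCl2, and the crude extract was held at 1 mg/mL protein for a 30 min treatment with 10 μM compound. Aliquots were heated for 3 min over 48°C-58°C and pooled before NP-40 was added to 0.5% at 4°C. The supernatant from 21,000xg for 90 min was quantified by TMTpro 16plex LC-MS/MS with channel sums equalised. Values are reported from duplicates as log-two fold change in thermal stability relative to solvent controls.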

Amino acid sequences for entries named in this document (tags omitted). A change or cut given only in a name is not applied to a line headed by its entry.
UniProt Q9UKE5: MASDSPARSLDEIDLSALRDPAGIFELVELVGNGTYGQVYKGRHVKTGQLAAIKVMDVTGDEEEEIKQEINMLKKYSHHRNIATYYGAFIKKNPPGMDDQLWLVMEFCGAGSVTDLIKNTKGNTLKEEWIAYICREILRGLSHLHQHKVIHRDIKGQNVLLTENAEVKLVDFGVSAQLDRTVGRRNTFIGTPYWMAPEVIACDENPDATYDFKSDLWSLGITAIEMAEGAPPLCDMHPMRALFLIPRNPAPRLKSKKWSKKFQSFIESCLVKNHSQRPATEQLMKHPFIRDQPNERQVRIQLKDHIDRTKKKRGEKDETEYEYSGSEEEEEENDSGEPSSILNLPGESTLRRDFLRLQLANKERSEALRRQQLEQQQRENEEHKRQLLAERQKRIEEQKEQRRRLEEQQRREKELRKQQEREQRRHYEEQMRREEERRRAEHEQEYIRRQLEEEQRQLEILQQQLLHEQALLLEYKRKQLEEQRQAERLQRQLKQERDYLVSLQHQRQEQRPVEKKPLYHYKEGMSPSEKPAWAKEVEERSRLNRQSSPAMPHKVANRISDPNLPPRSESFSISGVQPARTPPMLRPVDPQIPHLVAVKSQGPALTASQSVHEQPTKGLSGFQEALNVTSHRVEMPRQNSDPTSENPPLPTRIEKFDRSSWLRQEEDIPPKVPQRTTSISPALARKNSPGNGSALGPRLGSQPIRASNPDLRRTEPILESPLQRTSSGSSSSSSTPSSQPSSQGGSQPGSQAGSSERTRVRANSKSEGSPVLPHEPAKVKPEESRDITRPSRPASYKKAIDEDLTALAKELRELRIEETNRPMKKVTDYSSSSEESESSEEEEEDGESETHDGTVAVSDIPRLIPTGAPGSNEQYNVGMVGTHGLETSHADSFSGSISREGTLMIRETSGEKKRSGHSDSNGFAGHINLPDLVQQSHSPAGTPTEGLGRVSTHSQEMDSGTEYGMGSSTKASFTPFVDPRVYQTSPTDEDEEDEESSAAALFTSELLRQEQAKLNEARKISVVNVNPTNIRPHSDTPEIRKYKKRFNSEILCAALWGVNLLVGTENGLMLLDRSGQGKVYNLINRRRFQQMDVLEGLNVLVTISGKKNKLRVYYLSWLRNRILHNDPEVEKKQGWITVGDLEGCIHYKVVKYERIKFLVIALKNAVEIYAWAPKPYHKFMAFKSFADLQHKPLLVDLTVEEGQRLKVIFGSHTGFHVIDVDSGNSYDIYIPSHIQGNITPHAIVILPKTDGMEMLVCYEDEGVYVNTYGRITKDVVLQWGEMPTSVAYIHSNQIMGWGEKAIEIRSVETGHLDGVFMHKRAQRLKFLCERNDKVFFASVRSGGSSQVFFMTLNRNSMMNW
UniProt Q9H496: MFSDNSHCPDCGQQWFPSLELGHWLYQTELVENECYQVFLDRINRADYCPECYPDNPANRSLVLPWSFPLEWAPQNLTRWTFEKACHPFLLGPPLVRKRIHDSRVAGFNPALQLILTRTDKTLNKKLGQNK
UniProt P28908: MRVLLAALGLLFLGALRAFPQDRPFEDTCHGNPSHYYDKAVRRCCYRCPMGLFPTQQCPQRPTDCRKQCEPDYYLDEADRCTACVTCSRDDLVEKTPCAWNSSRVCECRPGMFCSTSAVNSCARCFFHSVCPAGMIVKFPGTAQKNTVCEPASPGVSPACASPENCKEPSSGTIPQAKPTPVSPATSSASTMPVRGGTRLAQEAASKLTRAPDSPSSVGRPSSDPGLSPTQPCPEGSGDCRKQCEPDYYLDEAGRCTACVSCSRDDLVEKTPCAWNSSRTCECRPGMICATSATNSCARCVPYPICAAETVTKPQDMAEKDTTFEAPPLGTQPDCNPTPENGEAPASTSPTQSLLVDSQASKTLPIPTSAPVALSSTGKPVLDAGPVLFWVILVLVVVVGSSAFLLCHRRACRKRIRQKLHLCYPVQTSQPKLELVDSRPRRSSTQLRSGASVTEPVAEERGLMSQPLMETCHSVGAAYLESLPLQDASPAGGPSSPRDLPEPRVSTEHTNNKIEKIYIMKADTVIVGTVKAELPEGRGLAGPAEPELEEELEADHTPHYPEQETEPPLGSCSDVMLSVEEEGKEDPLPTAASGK
UniProt Q9H497: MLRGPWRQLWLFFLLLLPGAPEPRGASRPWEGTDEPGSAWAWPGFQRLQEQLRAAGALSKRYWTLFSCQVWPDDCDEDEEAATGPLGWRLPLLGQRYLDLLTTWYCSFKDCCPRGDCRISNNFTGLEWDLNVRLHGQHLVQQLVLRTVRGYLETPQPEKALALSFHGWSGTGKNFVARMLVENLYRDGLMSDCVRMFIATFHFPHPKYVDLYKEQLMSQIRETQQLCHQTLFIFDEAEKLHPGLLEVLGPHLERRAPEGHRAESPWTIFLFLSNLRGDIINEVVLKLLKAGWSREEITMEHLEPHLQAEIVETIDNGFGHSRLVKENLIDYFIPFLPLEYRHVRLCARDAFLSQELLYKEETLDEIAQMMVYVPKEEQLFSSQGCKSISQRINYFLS
UniProt O43399: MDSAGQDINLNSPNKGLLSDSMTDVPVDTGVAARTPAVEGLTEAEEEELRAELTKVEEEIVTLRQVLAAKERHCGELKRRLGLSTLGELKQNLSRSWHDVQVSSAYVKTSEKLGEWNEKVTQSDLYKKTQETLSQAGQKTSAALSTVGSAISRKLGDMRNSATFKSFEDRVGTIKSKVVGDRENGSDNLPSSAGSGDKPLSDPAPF
UniProt Q9P0U1: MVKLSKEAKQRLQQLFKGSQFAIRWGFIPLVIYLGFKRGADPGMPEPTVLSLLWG
UniProt P20333, whole entry, looked up: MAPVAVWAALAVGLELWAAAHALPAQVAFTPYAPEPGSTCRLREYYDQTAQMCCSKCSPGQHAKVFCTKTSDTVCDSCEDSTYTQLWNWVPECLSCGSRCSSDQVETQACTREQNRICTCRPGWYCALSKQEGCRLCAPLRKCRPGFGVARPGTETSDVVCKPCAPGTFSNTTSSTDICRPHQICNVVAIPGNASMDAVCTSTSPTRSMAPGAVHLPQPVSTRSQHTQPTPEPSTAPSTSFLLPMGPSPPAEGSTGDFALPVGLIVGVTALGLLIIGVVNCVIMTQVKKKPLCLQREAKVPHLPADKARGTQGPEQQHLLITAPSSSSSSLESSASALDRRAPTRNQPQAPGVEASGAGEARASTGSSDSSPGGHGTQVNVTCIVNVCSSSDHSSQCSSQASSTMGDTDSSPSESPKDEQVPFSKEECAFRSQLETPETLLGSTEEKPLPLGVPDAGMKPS
UniProt Q9NZR1: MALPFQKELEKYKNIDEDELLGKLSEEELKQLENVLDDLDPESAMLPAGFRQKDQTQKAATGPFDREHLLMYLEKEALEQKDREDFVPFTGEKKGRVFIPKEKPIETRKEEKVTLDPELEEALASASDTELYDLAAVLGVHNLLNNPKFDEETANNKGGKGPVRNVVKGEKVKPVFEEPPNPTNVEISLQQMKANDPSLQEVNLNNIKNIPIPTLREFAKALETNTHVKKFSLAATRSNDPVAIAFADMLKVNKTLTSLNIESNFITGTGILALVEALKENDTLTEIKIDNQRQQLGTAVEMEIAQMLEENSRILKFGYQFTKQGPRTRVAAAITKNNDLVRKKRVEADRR
UniProt Q9ULW0, whole entry, looked up: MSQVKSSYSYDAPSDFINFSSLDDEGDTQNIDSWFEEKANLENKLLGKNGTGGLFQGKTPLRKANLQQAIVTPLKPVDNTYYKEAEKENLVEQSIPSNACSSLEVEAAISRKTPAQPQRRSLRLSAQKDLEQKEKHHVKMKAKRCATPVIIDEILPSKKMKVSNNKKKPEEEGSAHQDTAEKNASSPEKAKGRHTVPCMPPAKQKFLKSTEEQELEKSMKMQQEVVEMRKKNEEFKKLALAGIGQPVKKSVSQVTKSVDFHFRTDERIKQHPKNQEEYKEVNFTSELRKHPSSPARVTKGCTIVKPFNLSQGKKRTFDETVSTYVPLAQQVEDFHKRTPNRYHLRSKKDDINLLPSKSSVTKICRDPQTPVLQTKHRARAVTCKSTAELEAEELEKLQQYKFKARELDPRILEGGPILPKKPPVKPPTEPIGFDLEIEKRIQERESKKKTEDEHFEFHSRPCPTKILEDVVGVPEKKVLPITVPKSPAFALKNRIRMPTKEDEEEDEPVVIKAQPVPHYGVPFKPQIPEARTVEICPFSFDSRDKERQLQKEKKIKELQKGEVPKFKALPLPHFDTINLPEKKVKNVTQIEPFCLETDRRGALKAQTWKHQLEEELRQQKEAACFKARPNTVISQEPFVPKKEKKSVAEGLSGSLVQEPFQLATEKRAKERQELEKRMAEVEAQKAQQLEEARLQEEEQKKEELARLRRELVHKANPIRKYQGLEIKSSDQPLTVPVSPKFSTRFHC
UniProt Q8NDV7: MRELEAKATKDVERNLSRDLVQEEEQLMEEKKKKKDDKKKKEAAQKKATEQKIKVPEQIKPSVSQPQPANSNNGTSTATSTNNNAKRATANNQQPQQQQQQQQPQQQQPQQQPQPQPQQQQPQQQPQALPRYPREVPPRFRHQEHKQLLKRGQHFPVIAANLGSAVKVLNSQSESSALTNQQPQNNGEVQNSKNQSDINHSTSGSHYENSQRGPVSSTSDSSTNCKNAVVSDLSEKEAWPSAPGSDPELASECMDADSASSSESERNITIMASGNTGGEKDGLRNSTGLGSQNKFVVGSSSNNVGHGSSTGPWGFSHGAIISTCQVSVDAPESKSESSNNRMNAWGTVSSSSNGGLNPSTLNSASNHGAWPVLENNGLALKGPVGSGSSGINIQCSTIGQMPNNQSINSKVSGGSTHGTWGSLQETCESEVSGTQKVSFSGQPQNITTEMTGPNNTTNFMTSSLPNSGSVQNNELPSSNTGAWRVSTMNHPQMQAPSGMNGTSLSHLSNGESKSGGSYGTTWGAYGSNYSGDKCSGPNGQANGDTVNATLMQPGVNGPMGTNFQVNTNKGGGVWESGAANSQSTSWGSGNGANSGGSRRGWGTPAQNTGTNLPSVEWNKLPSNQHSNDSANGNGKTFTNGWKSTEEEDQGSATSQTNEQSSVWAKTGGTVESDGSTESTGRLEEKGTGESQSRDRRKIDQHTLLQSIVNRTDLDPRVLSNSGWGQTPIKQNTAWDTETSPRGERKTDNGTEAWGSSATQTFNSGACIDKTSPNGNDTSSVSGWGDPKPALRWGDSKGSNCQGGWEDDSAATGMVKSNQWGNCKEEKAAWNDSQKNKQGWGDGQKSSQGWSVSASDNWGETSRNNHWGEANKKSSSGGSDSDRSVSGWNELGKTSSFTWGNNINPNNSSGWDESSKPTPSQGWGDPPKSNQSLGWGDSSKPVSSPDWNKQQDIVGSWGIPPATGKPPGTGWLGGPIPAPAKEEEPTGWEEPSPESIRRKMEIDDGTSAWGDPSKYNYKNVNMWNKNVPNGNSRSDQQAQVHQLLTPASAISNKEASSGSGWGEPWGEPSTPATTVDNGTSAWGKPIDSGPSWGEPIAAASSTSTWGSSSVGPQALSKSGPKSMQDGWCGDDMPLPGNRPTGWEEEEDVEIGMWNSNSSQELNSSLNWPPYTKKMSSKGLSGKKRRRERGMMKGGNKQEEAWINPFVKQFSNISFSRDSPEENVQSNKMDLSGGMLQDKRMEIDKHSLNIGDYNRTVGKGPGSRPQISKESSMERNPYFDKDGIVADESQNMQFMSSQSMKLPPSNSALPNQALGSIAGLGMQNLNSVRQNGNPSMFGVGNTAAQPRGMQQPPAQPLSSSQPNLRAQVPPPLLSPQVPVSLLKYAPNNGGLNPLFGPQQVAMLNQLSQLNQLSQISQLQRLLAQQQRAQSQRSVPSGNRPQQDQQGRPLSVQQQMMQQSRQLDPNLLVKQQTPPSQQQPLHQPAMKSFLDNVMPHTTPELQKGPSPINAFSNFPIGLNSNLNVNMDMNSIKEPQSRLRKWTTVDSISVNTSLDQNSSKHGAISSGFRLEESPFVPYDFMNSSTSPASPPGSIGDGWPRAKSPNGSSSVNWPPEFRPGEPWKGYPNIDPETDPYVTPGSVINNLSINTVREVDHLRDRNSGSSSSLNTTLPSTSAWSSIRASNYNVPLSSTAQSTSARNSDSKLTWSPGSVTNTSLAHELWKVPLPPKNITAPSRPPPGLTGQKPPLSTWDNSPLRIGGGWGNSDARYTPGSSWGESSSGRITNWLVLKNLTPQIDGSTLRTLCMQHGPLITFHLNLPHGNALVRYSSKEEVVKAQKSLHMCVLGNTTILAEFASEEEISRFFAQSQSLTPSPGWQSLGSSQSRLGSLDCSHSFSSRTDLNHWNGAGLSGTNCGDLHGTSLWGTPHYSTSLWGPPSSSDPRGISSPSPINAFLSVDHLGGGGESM
UniProt Q8IY95: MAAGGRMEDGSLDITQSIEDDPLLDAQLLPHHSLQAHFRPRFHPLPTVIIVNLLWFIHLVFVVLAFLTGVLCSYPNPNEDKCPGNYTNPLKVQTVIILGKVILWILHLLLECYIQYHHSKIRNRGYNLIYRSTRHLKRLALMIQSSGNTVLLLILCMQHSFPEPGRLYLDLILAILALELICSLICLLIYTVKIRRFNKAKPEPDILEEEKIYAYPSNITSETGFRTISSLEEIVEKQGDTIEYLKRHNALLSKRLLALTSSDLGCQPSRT
UniProt P63313: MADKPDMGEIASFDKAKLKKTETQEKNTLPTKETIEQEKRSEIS

[2] = compound: CS(=O)(=O)N1CCN(Cc2cc3nc(-c4cccc5[nH]ncc45)nc(N4CCOCC4)c3s2)CC1 [pictilisib]
Procedure, shortened: as §1

[3] = compound: C[C@@H](Oc1cc(-c2cnn(C3CCNCC3)c2)cnc1N)c1c(Cl)ccc(F)c1Cl [crizotinib]
Procedure, shortened: as §1

[4] = compound: C[C@H](C1=CC=C(C=C1)C(=O)NC2=C3C=CNC3=NC=C2)N
Procedure, shortened: as §1

[5] = compound: C[C@H](Nc1ncnc2nc[nH]c12)c1cc2cccc(Cl)c2c(=O)n1-c1ccccc1 [duvelisib]
Procedure, shortened: as §1

[6] = compound: Cc1cc(Nc2cc(CN3CCOCC3)c3nc(C)c(Cc4ccc(Cl)cc4F)n3n2)n[nH]1 [gandotinib]
Procedure, shortened: as §1

[7] = compound: Cc1cc(Nc2cc(N3CCN(C)CC3)nc(Sc3ccc(NC(=O)C4CC4)cc3)n2)n[nH]1 [tozasertib]
Procedure, shortened: as §1

[8] = compound: Cc1ccc(-n2nc(C(C)(C)C)cc2NC(=O)Nc2ccc(OCCN3CCOCC3)c3ccccc23)cc1 [doramapimod]
Procedure, shortened: as §1

[9] = compound: Cc1ccc(NC(=O)c2ccc(CN3CC[C@H](N(C)C)C3)c(C(F)(F)F)c2)cc1Nc1nccc(-c2cncnc2)n1 [bafetinib]
Procedure, shortened: as §1

[10] = compound: Cc1cccc(CC(=O)N2CCc3c2ccc(-c2cn(C)c4ncnc(N)c24)c3F)n1
Procedure, shortened: as §1

[11] = compound: Cc1cn(-c2cc(NC(=O)c3ccc(C)c(Nc4nccc(-c5cccnc5)n4)c3)cc(C(F)(F)F)c2)cn1 [nilotinib]
Procedure, shortened: as §1

[12] = compound: Cc1nc(Nc2n[nH]c3c2CN(C(=O)N[C@H](CN(C)C)c2ccccc2)C3(C)C)c2sccc2n1
Procedure, shortened: as §1

[13] = compound: Cc1nc(Nc2ncc(C(=O)Nc3c(C)cccc3Cl)s2)cc(N2CCN(CCO)CC2)n1 [dasatinib]
Procedure, shortened: as §1

[14] = compound: Cc1ncc(-c2ccnc(Nc3ccc(S(C)(=O)=O)cc3)n2)n1C(C)C
Procedure, shortened: as §1

[15] = compound: Cn1cc(-c2ccc3c(c2)CCN3C(=O)Cc2cccc(C(F)(F)F)c2)c2c(N)ncnc21
Procedure, shortened: as §1

[16] = compound: Cn1cc(CNCC2CCN(c3ncc(C(=O)NO)cn3)CC2)c2ccccc21 [quisinostat]
Procedure, shortened: as §1

[17] = compound: Cn1cncc1[C@@](N)(c1ccc(Cl)cc1)c1ccc2c(c1)c(-c1cccc(Cl)c1)cc(=O)n2C [tipifarnib]
Procedure, shortened: as §1

[18] = compound: NC(=O)Nc1cc(-c2cccc(F)c2)sc1C(=O)N[C@H]1CCCNC1
Procedure, shortened: as §1

[19] = compound: NC(=O)c1cnc(N[C@@H]2CCCC[C@@H]2N)nc1Nc1cccc(-n2nccn2)c1
Procedure, shortened: as §1

[20] = compound: NC1(c2ccc(-c3nc4ccn5c(=O)[nH]nc5c4cc3-c3ccccc3)cc2)CCC1
Procedure, shortened: as §1

Target | log2 fold change [1] | log2 fold change [2] | log2 fold change [3] | log2 fold change [4] | log2 fold change [5] | log2 fold change [6] | log2 fold change [7] | log2 fold change [8] | log2 fold change [9] | log2 fold change [10] | log2 fold change [11] | log2 fold change [12] | log2 fold change [13] | log2 fold change [14] | log2 fold change [15] | log2 fold change [16] | log2 fold change [17] | log2 fold change [18] | log2 fold change [19] | log2 fold change [20]
TMEM189-UBE2V1 (UniProt I3L0A0) | inactive: -0.017 | inactive: -0.029 | inactive: -0.009 | inactive: -0.035 | inactive: 0.042 | inactive: 0.059 | inactive: 0.016 | inactive: 0.021 | inactive: -0.022 | inactive: 0.043 | inactive: 0.046 | inactive: -0.002 | inactive: -0.009 | inactive: 0.035 | inactive: 0.066 | inactive: -0.032 | inactive: -0.024 | inactive: -0.043 | inactive: -0.037 | inactive: -0.042
TNIK isoform 4 (UniProt Q9UKE5) | inactive: -0.017 | inactive: 0.012 | inactive: -0.055 | inactive: 0.038 | inactive: 0.004 | inactive: 0.153 | inactive: 0.098 | inactive: 0.205 | inactive: -0.007 | inactive: -0.04 | inactive: -0.019 | inactive: 0.087 | inactive: 0.203 | inactive: 0.11 | inactive: -0.011 | inactive: -0.198 | inactive: -0.022 | active: 0.483 | inactive: 0.08 | inactive: -0.021
TOR1AIP2 (UniProt Q9H496) | inactive: -0.088 | inactive: -0.027 | inactive: -0.023 | inactive: -0.066 | inactive: 0.119 | inactive: 0.111 | inactive: -0.061 | inactive: -0.06 | inactive: 0.083 | inactive: 0.05 | inactive: 0.074 | inactive: -0.029 | inactive: 0.24 | inactive: 0.154 | inactive: 0.352 | inactive: -0.024 | inactive: -0.112 | inactive: 0.037 | inactive: 0.062 | inactive: -0.106
TNFRSF8 (UniProt P28908) | inactive: 0.02 | inactive: -0.075 | inactive: -0.004 | inactive: -0.04 | inactive: -0.025 | inactive: 0.035 | inactive: 0.038 | inactive: 0.058 | inactive: -0.036 | inactive: 0.006 | inactive: -0.01 | inactive: 0.011 | inactive: 0.046 | inactive: -0.024 | inactive: 0.01 | inactive: -0.001 | inactive: 0.034 | inactive: -0.026 | inactive: -0.027 | inactive: 0.002
TOR3A (UniProt Q9H497) | active: -0.43 | inactive: -0.077 | inactive: 0.023 | inactive: -0.078 | inactive: 0.012 | inactive: 0.012 | inactive: -0.047 | inactive: -0.024 | inactive: 0.046 | inactive: 0.048 | inactive: 0.042 | inactive: -0.037 | inactive: 0.022 | inactive: -0.043 | inactive: 0.012 | inactive: 0.019 | inactive: -0.061 | inactive: 0.054 | inactive: 0.041 | inactive: -0.064
TPD52L2 isoform 7 (UniProt O43399) | inactive: 0.039 | inactive: 0.003 | inactive: 0.095 | inactive: -0.124 | inactive: -0.022 | active: 0.222 | inactive: 0.043 | inactive: 0.03 | inactive: 0.139 | inactive: 0.057 | inactive: 0.022 | inactive: 0.019 | inactive: 0.056 | inactive: 0.042 | inactive: -0.009 | inactive: 0.038 | inactive: -0.012 | inactive: -0.022 | inactive: -0.039 | inactive: 0.049
TOMM7 (UniProt Q9P0U1) | inactive: 0.017 | inactive: -0.009 | inactive: -0.17 | inactive: -0.008 | inactive: -0.006 | inactive: 0.076 | inactive: 0.08 | inactive: 0.051 | inactive: -0.067 | inactive: 0.094 | inactive: 0.059 | inactive: 0.031 | inactive: 0.032 | inactive: 0.084 | inactive: -0.027 | inactive: -0.15 | inactive: -0.061 | inactive: 0.019 | inactive: -0.006 | inactive: -0.051
TPRKB (UniProt Q9Y3C4) | inactive: 0.012 | inactive: 0.033 | inactive: 0.009 | inactive: 0.003 | inactive: 0.028 | inactive: 0.016 | inactive: -0.092 | inactive: -0.016 | inactive: 0.048 | inactive: -0.008 | inactive: -0.006 | inactive: 0.007 | inactive: 0.012 | inactive: 0.007 | inactive: -0.02 | inactive: -0.028 | inactive: -0.031 | inactive: 0.041 | inactive: 0.04 | inactive: 0.026
TOE1 (UniProt Q96GM8) | inactive: 0.002 | inactive: -0.057 | inactive: 0.003 | inactive: -0.023 | inactive: 0.052 | inactive: -0.016 | inactive: 0.059 | inactive: -0.04 | inactive: 0.047 | inactive: 0.059 | inactive: -0.039 | inactive: -0.012 | inactive: 0.016 | inactive: 0.04 | inactive: 0.015 | inactive: -0.036 | inactive: 0.006 | inactive: 0.023 | inactive: -0.013 | inactive: -0.01
TNFRSF1B (UniProt P20333) | inactive: -0.204 | inactive: -0.037 | inactive: 0.007 | inactive: -0.144 | inactive: 0.007 | inactive: 0.127 | inactive: -0.013 | inactive: -0.034 | inactive: -0.04 | inactive: 0.122 | inactive: 0.009 | inactive: 0.036 | inactive: -0.178 | inactive: -0.064 | inactive: -0.093 | inactive: -0.055 | inactive: -0.178 | inactive: -0.012 | inactive: 0.003 | inactive: 0
TMOD2 (UniProt Q9NZR1) | inactive: 0.009 | inactive: 0.019 | inactive: -0.027 | inactive: -0.04 | inactive: -0.007 | inactive: 0.056 | inactive: 0.022 | inactive: 0.006 | inactive: 0.018 | inactive: 0.131 | inactive: -0.019 | inactive: 0.022 | inactive: -0.043 | inactive: 0.035 | inactive: 0.013 | inactive: -0.005 | inactive: -0.048 | inactive: -0.003 | inactive: 0 | inactive: 0.019
TPX2 (UniProt Q9ULW0) | inactive: 0.008 | inactive: 0.032 | inactive: 0.023 | inactive: 0.01 | inactive: 0.002 | inactive: 0.04 | inactive: -0.003 | inactive: 0.049 | inactive: -0.023 | inactive: -0.011 | inactive: -0.001 | inactive: 0.007 | inactive: -0.002 | inactive: 0.002 | inactive: 0 | inactive: -0.04 | inactive: -0.007 | inactive: -0.021 | inactive: -0.02 | inactive: -0.004
TNRC6A (UniProt Q8NDV7) | inactive: 0.285 | inactive: -0.203 | inactive: 0.057 | inactive: -0.024 | inactive: 0.024 | inactive: 0.008 | inactive: -0.259 | inactive: 0.069 | inactive: -0.085 | inactive: 0.037 | inactive: -0.092 | inactive: -0.016 | inactive: -0.021 | inactive: -0.014 | inactive: -0.098 | inactive: 0.226 | inactive: -0.172 | inactive: -0.043 | inactive: -0.014 | inactive: -0.023
TMEM192 (UniProt Q8IY95) | inactive: 0.002 | inactive: -0.016 | inactive: -0.024 | inactive: -0.014 | inactive: 0.023 | inactive: 0.017 | inactive: 0.053 | inactive: -0.016 | inactive: 0.019 | inactive: 0.038 | inactive: 0.007 | inactive: 0.001 | inactive: -0.013 | inactive: -0.004 | inactive: 0.023 | inactive: -0.065 | inactive: 0.01 | inactive: 0.01 | inactive: -0.044 | inactive: 0.022
TOLLIP (UniProt Q9H0E2) | inactive: -0.018 | inactive: 0.003 | inactive: -0.059 | inactive: -0.024 | inactive: 0.003 | inactive: 0.08 | inactive: 0.037 | inactive: 0.193 | inactive: -0.04 | inactive: 0.007 | inactive: -0.029 | inactive: 0.004 | inactive: -0.016 | inactive: -0.052 | inactive: -0.026 | inactive: -0.021 | inactive: -0.044 | inactive: 0.01 | inactive: 0.011 | inactive: -0.011
TMSB10 (UniProt P63313) | inactive: 0.005 | inactive: 0.084 | inactive: 0.009 | inactive: 0.256 | inactive: 0.059 | inactive: -0.117 | inactive: -0.117 | inactive: 0.016 | inactive: 0.018 | inactive: -0.098 | inactive: 0.046 | inactive: 0.022 | inactive: 0.022 | inactive: 0.258 | inactive: -0.313 | inactive: -0.055 | inactive: 0.102 | inactive: -0.072 | inactive: -0.081 | inactive: -0.02

Single records (already shown). Values in the order: log2 fold change [1]	log2 fold change [2]	log2 fold change [3]	log2 fold change [4]	log2 fold change [5]	log2 fold change [6]	log2 fold change [7]	log2 fold change [8]	log2 fold change [9]	log2 fold change [10]	log2 fold change [11]	log2 fold change [12]	log2 fold change [13]	log2 fold change [14]	log2 fold change [15]	log2 fold change [16]	log2 fold change [17]	log2 fold change [18]	log2 fold change [19]	log2 fold change [20]
TPD52L2 isoform 7 (UniProt O43399) as listed: inactive: 0.039	inactive: 0.003	inactive: 0.095	inactive: -0.124	inactive: -0.022	active: 0.222	inactive: 0.043	inactive: 0.03	inactive: 0.139	inactive: 0.057	inactive: 0.022	inactive: 0.019	inactive: 0.056	inactive: 0.042	inactive: -0.009	inactive: 0.038	inactive: -0.012	inactive: -0.022	inactive: -0.039	inactive: 0.049
TPX2 (UniProt Q9ULW0) as listed: inactive: 0.008	inactive: 0.032	inactive: 0.023	inactive: 0.01	inactive: 0.002	inactive: 0.04	inactive: -0.003	inactive: 0.049	inactive: -0.023	inactive: -0.011	inactive: -0.001	inactive: 0.007	inactive: -0.002	inactive: 0.002	inactive: 0	inactive: -0.04	inactive: -0.007	inactive: -0.021	inactive: -0.02	inactive: -0.004

Source: the supplement of paper PMC10849652
